Data taken from PubChem BioAssay (Tox21).
Values joined by “and” are separate entries in the source; they are usually repeats but may differ in a detail not shown here. Equal values may be shown once. The shares of active, inactive and inconclusive entries below differ from those in the screen. For some assays here: Potencies beside an inconclusive call are fits to weak or partial responses and may not hold up. Active and inactive are the calls of the source. Unless noted, calls follow the shape of the full dose curve.

Chains of the proteins cited; added tags and fusions are not shown. Lines headed by an entry give the natural chain unless they say otherwise; changes in a name come on top.
UniProt P28223, whole entry, looked up: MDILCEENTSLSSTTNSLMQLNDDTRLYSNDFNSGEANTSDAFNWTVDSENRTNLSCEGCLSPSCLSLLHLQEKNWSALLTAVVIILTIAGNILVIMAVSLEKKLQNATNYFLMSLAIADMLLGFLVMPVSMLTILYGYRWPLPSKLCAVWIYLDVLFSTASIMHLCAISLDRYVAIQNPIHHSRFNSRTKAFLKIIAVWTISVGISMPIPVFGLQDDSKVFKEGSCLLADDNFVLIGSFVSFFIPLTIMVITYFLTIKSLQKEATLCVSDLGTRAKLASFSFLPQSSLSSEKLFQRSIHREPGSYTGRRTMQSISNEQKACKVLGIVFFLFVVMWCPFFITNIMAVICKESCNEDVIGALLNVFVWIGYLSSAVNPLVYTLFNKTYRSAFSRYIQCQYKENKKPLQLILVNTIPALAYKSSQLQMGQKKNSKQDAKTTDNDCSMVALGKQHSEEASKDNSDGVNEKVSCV
UniProt P14416, whole entry, looked up: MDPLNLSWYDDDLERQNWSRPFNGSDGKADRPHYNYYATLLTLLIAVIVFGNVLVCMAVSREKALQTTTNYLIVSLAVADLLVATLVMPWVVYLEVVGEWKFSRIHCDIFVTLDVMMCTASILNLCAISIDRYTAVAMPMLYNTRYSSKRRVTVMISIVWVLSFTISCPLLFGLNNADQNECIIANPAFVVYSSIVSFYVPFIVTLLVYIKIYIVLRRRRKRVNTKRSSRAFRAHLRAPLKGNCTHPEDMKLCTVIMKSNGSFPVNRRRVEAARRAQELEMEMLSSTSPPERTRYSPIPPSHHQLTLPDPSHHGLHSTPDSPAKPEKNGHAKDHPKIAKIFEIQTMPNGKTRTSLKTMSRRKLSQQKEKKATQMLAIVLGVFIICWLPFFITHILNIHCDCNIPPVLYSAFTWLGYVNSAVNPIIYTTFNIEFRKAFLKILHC
UniProt P11229: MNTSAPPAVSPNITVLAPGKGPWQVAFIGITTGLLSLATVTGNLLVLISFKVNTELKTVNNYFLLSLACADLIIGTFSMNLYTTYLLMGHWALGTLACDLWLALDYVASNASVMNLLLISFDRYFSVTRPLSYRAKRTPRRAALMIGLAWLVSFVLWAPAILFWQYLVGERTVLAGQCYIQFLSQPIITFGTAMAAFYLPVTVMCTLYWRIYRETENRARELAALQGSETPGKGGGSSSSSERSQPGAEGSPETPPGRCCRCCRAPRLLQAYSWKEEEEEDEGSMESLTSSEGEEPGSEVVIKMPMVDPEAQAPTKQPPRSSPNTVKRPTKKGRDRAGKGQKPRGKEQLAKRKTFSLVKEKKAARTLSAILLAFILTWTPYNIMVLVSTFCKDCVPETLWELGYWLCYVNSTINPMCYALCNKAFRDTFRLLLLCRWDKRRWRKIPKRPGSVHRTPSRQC

Legend:
[1] = p53 small molecule agonists, cell-based qHTS assay with human liver microsomes (AID 1963577); conditions: HCT-116 p53RE-bla with human liver microsomes, ratio, 16 h; activation: at 66 µM (top of the series) unless noted; also: potency is read from the fitted curve at half-maximal effect;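 as to activation: p53 response element beta-lactamase reporter cells with liver microsomes plus NADPH; % is scaled to controls: 0 for no effect and ±100 for the full control effect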
Procedure, shortened: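 Cells carrying a p53-responsive bla reporter were rested 5 h (37 C, 5% CO2) before compound transfer. Human liver microsomes plus NADPH, 0.5 mg/mL final apiece, supplied metabolism during the 16 h 37 C exposure.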

[2] = p53 small molecule agonists, cell-based qHTS assay: qHTS cell viability counter screen (AID 1963581); also: nearly all actives have a fitted effect of over 45% in size; also: potency is read from the fitted curve at half-maximal effect
Procedure, shortened: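 Compounds are pinned onto HCT-116 p53RE-bla cells and left 16 h at 37 C. Following the reporter FRET read, ATP is quantified by CellTiter-Glo luminescence after 30 min at room temperature.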

[3] = p53 small molecule agonists, cell-based qHTS assay (AID 1963582; active = well fitted activation curve with a large enough effect in the signal ratio in the repeat runs, not every such curve was filed as active; inconclusive = weak or mixed curves; the % refers to the signal ratio; also: potency is read from the fitted curve at half-maximal effect; as to activation: % is scaled to controls: 0 for no effect and ±100 for the full control effect); conditions: HCT-116 p53RE-bla reporter, beta-lactamase FRET ratio, 16 h; activation: at 66 µM (top of the series) unless noted
Procedure, shortened: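 Agonist activity was scored from beta-lactamase FRET fluorescence in p53RE-bla cells treated 16 h at 37 C with compounds in DMSO, substrate incubation being 2 h at room temperature.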

[4] = cAMP Responsive Elements (CRE) small molecule agonists, cell-based qHTS assay (AID 1963590); conditions: CRE-bla HEK293T, beta-lactamase FRET ratio, 3 h; activation: at 92.4 µM (top of the series) unless noted; also: potency is read from the fitted curve at half-maximal effect
Procedure, shortened: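 FRET-based beta-lactamase readout (LiveBLAzer B/G, 2 h RT) quantified CRE activation in HEK 293T CRE-bla cells after 3 h treatment with DMSO-dissolved compounds.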

[5] = target: Beta-2 adrenergic receptor (Homo sapiens) (UniProt P07550); experiment: Adrenergic beta2 receptor (ADRB2) small molecule antagonists, cell-based qHTS assay (AID 1963592); conditions: CHO-ADRB2 cells, isoproterenol-stimulated cAMP HTRF ratio, 0.5 h; activity change, negative = inhibition: at 92.4 µM (top of the series) unless noted; also: % is scaled to controls: 0 for no effect and ±100 for the full control effect; nearly all actives have a fitted effect of over 50% in size
Procedure, shortened: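 Cells (CHO, stable ADRB2 overexpression) incubated 18-20hr at 37C; compounds added from DMSO; agonist mix (1nM isoproterenol, 100uM IBMX, 25uM Ro-20-1724) added; 0.5hr RT; d2-cAMP and anti-cAMP-cryptate added; 1hr RT; 665/615 nm read.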

[6] = target: Beta-2 adrenergic receptor (Homo sapiens) (UniProt P07550); experiment: Adrenergic beta2 receptor (ADRB2) small molecule agonists, cell-based qHTS assay (AID 1963593); conditions: CHO-ADRB2 cells, cAMP HTRF, 30 min; activation: at 92.4 µM (top of the series) unless noted; also: potency is read from the fitted curve at half-maximal effect;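 as to activation: CHO cells stably overexpressing human ADRB2; % is scaled to controls: 0 for no effect and ±100 for the full control effect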
Procedure, shortened: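 CHO cells stably over-expressing ADRB2 were plated overnight at 37C, then dosed with compounds plus a stimulation mix containing 100uM IBMX and 25uM Ro-20-1724 for 0.5hr at room temperature. cAMP was measured by HTRF competition, 1hr.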

[7] = p53 small molecule agonists, cell-based qHTS assay with rat liver microsomes: qHTS cell viability counter screen (AID 1963580); also: % is scaled to controls: 0 for no effect and ±100 for the full control effect; nearly all actives have a fitted effect of over 45% in size
Procedure, shortened: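 p53RE-bla HCT-116 cells (4,000/well) rested 5 h at 37 C, then given Tox21 compounds in DMSO with rat liver microsomes (0.5 mg/mL final) plus NADPH (0.5 mg/mL final) for 16 h at 37 C. Viability read by CellTiter-Glo luminescence after 30 min at room temperature.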

[8] = target: 5-hydroxytryptamine receptor 2A (Homo sapiens) (UniProt P28223); experiment: 5-hydroxytryptamine receptor 2A (HTR2A) small molecule antagonists, cell-based qHTS assay (AID 1963586); also: potency is read from the fitted curve at half-maximal effect; nearly all actives have a fitted effect of over 45% in size
Procedure, shortened: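 Antagonist-mode intracellular calcium assay: DOI (4 nM) added after 5 min compound pre-incubation at room temperature to dye-loaded HTR2A-CHO cells. Fluorescence followed for 3 min, sampled every second.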

[9] = p53 small molecule agonists, cell-based qHTS assay with human liver microsomes: qHTS cell viability counter screen (AID 1963579); also: nearly all actives have a fitted effect of over 45% in size; also: potency is read from the fitted curve at half-maximal effect
Procedure, shortened: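 Seed p53RE-bla cells at 4,000 per well; incubate 5 h at 37 C; add compound, human liver microsomes and NADPH; incubate 16 h at 37 C; add CellTiter-Glo; after 30 min at room temperature, read luminescence.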

[10] = target: D(2) dopamine receptor (Homo sapiens) (UniProt P14416); experiment: Dopamine D2 receptor (DRD2) small molecule agonists, cell-based qHTS assay (AID 1963594); conditions: HEK293-DRD2 cAMP HTRF, agonist mode, 30 min; activation: at 92.4 µM (top of the series) unless noted; also: potency is read from the fitted curve at half-maximal effect; nearly all actives have a fitted effect of over 35% in size
Procedure, shortened: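 HEK293 cells stably expressing DRD2 were cultured 24 h at 37 C, then given Ro20-1724 (0.1 mM final) and compounds for 10 min at room temperature. NKH477 (200nM) was then added for 30 min. cAMP was read by HTRF.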

[11] = target: 5-hydroxytryptamine receptor 2A (Homo sapiens) (UniProt P28223); experiment: 5-hydroxytryptamine receptor 2A (HTR2A) small molecule agonists, cell-based qHTS assay (AID 1963587); conditions: HTR2A-CHO cells, calcium flux fluorescence, agonist mode; activation: at 76.8 µM (top of the series); also: potency is read from the fitted curve at half-maximal effect; nearly all actives have a fitted effect of over 30% in size
Procedure, shortened: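 HTR2A-CHO cells, plated 18 h at 37 C/5% CO2, dye-loaded 1 h at 37 C; compounds in DMSO added by pin tool (agonist mode). Intracellular calcium flux read as kinetic fluorescence on FDSS over 2 min at 1 s intervals.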

[12] = cAMP Responsive Elements (CRE) small molecule antagonists, cell-based qHTS assay (AID 1963591; active = well fitted inhibition curve with a large enough effect in the signal ratio in the repeat runs, not every such curve was filed as active; inconclusive = weak or mixed curves, or effect the other way; the % refers to the signal ratio; also: potency is read from the fitted curve at half-maximal effect; as to activity change, negative = inhibition: % is scaled to controls: 0 for no effect and ±100 for the full control effect); conditions: CRE-bla HEK293T, beta-lactamase FRET ratio; activity change, negative = inhibition: at 92.4 µM (top of the series) unless noted
Procedure, shortened: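 qHTS in CRE-bla HEK 293T cells: compound in DMSO, then 0.25 uM NKH477 (final), 3 h at 37 °C/5% CO2; beta-lactamase FRET read-out after 2 h substrate incubation.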

[13] = target: Muscarinic acetylcholine receptor M1 (Homo sapiens) (UniProt P11229); experiment: Cholinergic receptor muscarinic 1 (CHRM1) small molecule antagonists, cell-based qHTS assay (AID 1963588); also: potency is read from the fitted curve at half-maximal effect; nearly all actives have a fitted effect of over 40% in size
Procedure, shortened: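 CHRM1-CHO calcium-flux assay, antagonist mode. Cells were seeded 18 h, dye-loaded 1 h at 37 C and given compound for 5 min at RT, then acetylcholine was added at 50nM. FDSS fluorescence was read 3 min; 15 concentrations, three runs.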

[14] = target: D(2) dopamine receptor (Homo sapiens) (UniProt P14416); experiment: Dopamine D2 receptor (DRD2) small molecule antagonists, cell-based qHTS assay (AID 1963595; active = well fitted inhibition curve with a large enough effect in the signal ratio in the repeat runs, with a control signal flat; inconclusive = weak or mixed curves, or effect the other way; the % refers to the signal ratio; also: potency is read from the fitted curve at half-maximal effect); conditions: HEK293-DRD2 cAMP HTRF antagonist mode; activity change, negative = inhibition: at 92.4 µM (top of the series) unless noted
Procedure, shortened: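 Cells were plated and grown for 24 h at 37 °C. Ro20-1724 (0.1 mM final) went in first, then compound for 10 min. NKH477 (200 nM) with quinpirole (12 nM) followed for 30 min at RT, then HTRF detection reagents for 1 h.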

O=c1oc2ccccc2c(O)c1Cc1c(O)c2ccccc2oc1=O
Potency [1]: inconclusive: 12.6 µM [activator, partial curve] | Potency [2]: inconclusive: 2.51 µM [cytotoxic, full curve] | Potency [3]: active: 5 µM | Potency [4]: inconclusive: 13.3 µM [fluorescent] | Potency [5]: inactive | Potency [6]: inactive

Nc1cc(Cl)cc(C(=O)O)c1Cl
activation [1]: inconclusive: 13.3% | Potency [7]: inactive | Potency [3]: inactive | Potency [8]: inconclusive: 0.119 µM [inhibitor, single point] | activation [6]: inconclusive: 27.8%

CC(C)(OO)c1ccccc1
Potency [1]: inconclusive: 18.2 µM [rising, single point] | Potency [9]: inconclusive: 18.2 µM [cytotoxic, single point] | Potency [7]: inactive | activation [6]: inconclusive: 12.1% | Potency [10]: inconclusive: 68.6 µM [falling, single point]

CCCC1COC(Cn2cncn2)(c2ccc(Cl)cc2Cl)O1 (configuration not stated)
Potency [1]: inconclusive: 51.3 µM [rising, single point] | Potency [2]: inactive | Potency [3]: inconclusive: 52.3 µM [rising, single point] and inconclusive: 51.3 µM [rising, single point] | Potency [11]: inconclusive: 61.6 µM [activator, partial curve, poor fit] | Potency [4]: inconclusive: 62.3 µM [fluorescent, single point] and inconclusive: 54.5 µM [fluorescent, partial curve] | Potency [12]: inconclusive: 68.6 µM | Potency [6]: inconclusive: 9.87 µM [inhibitor, single point]

FC(F)(F)c1ccc(Cl)cc1
Potency [1]: inactive | Potency [2]: inconclusive: 0.287 µM [rising, partial curve] | Potency [3]: inconclusive: 18.2 µM [activator] | activation [6]: inconclusive: -2.43%

CC[C@H]1C[C@H]2[C@@H]3CCC4=CC(=O)CC[C@@H]4[C@H]3CC[C@]2(C)[C@H]1O
Potency [1]: inactive | Potency [9]: inconclusive: 2.23 µM [cytotoxic, single point] | Potency [3]: inconclusive: 17.8 µM [rising, partial curve, poor fit] | Potency [8]: inconclusive: 2.9 µM [inhibitor, full curve, poor fit] | Potency [11]: inconclusive: 26.8 µM [activator, partial curve, poor fit] | Potency [4]: inconclusive: 11.9 µM [fluorescent, full curve] | Potency [12]: inconclusive: 18.8 µM [activator, partial curve] | Potency [6]: inactive

COc1cccc(C(=O)NN(C(=O)c2cc(C)cc(C)c2)C(C)(C)C)c1C
Potency [1]: inconclusive: 45.8 µM [rising, single point] | Potency [9]: inactive | Potency [3]: inactive | Potency [13]: active: 14.9 µM | Potency [4]: inconclusive: 68.6 µM [rising, single point] | Potency [12]: inconclusive: 54.5 µM [activator, partial curve] | activation [6]: inconclusive: -1.17%

C=CCOC(=O)C(C)(C)OC(=O)c1cc(-n2c(=O)cc(C(F)(F)F)n(C)c2=O)ccc1Cl
Potency [1]: inconclusive: 50.4 µM [fluorescent, single point] | Potency [2]: inactive | activity change, negative = inhibition [12]: inconclusive: 9.29% | Potency [5]: inactive | Potency [6]: inactive

CN1C2CCC(C)(C)C1CC(OC(=O)C(O)(c1cccs1)c1cccs1)C2 (configuration not stated)
Potency [1]: inconclusive: 6.3 µM [fluorescent, partial curve] | Potency [9]: inactive | Potency [6]: inconclusive: 8.41 µM [activator, partial curve, poor fit]

CCCOC(=O)Cc1ccc(OCC(=O)N(CC)CC)c(OC)c1
Potency [1]: inactive | Potency [9]: inconclusive: 1.58 µM [rising, full curve, poor fit] | activation [6]: inconclusive: -14% [at 42.5 µM] | Potency [10]: active: 0.282 µM

COc1cccc(C(=O)CCN[C@@H](C)[C@H](O)c2ccccc2)c1
activation [1]: inconclusive: 9.72% [at 30.3 µM] | Potency [2]: inactive | Potency [8]: inconclusive: 4.6 µM [inhibitor, full curve, poor fit] | Potency [11]: inconclusive: 9.52 µM [activator, partial curve, poor fit] | Potency [4]: inactive | activity change, negative = inhibition [12]: inconclusive: 22.3% [at 42.4 µM] | activation [6]: inconclusive: 37% [at 42.5 µM] | Potency [14]: active: 15 µM
